Source: paper PMC10163288
The list shows a part of the results.

B1: il10ra_site1_sap_19_mot_HHH_b2_06497_000000202_0001_1_20_H_._HHH_b1_04383_0001_0000200013_0000002_0_0001 (protein)
chain: SSSSDELEEATEEAEELAKELGDEELERMLRLLLETYKKHGDRIAEWLLRQAIRAVRNLHRSSSS
B2: il10ra_site1_sap_22_mot_HHH_b2_04274_000000146_0001_1_19_H_._HHH_b2_01039_af2_0001_0000100006_0000001_0_0001 (protein)
chain: SSSSSEVEELLEEAKELIERGNPEEALHVLFRALRLALHEGDAELLREIWELLKEVAERNSSSSS
B3: il10ra_site1_normal_mot_HHH_b2_07569_000000265_0001_38_56_H_._HHH_b2_07896_0001_0000200016_0000001_0 (protein)
chain: SSSSSDEEYEEEVRELLEEAKEIEDREEALEVLLEALQLAIQLGDPELVQLVWEVIKRLFSSSSS
B4: il10ra_site1_sap_18_mot_HHH_b1_05056_000000217_0001_1_20_H_._HHH_b1_01984_af2_0001_0000500013_0000002_0_0001 (protein)
chain: SSSSSSEELEEYIEELEELTRQGDEDRVLELLQEALRLAYQERDEEILQLLWEIAKRVAKSSSSS
B5: il10ra_site1_sap_35_mot_HHH_b1_00102_af2_000000216_0001_43_57_H_._HHH_b2_07123_af2_0001_0000100001_0000001_0_0001 (protein)
chain: SSSSSDREEIEEEVEELLEEAKKISDPRELSEVLLRAVQLAFRVGDPELLHEVWEVFERLSSSSS
B6: il10ra_site1_normal_mot_HHH_b2_02736_000000092_0001_22_38_H_._HHH_b1_02879_af2_0001_0000300020_0000001_0 (protein)
chain: SSSSSEIAQEVYELLREAIELLADGNPEEAEEVVREALELAEEAGNEVLAWQARFLLREIESSSS
B7: il10ra_site1_normal_mot_HHH_b1_02062_000000185_0001_1_20_H_._HHH_b1_06583_0001_0000300011_0000001_0_af2pred_0001 (protein)
chain: SSSSSEKLREALELSRRILELLAEGDKEEAKELLRELEELAEELNNPLLEHLLKRLERELNSSSS
B8: il10ra_site1_normal_mot_HHH_b2_00479_000000091_0001_1_12_H_._HHH_b1_06081_0001_0000100003_0000002_0_af2pred_0001 (protein)
chain: SSSSSKVVEEARKASERALELLRQGNEEEVERLLREALELLEEHNNLVLLFILESLLRRIKSSSS
B9: il10ra_site1_normal_mot_8756ee2cf497b5429c717dfc0c0bcfd6_0001_000000186_0001_1_13_H_._HHH_b2_00413_0001_0000400023_0000001_0_af2pred_0001 (protein)
chain: SSSSSDSDVNRRVIELSREALHIDDEEERREVLEEALELAEEGNNLDLLAVLKYILELLSSSSSS
B10: il10ra_site1_sap_13_mot_HHH_b2_00943_af2_000000149_0001_1_17_H_._HHH_b1_05740_0001_0000400009_0000001_0_0001 (protein)
chain: SSSSDKSQEIYEILRRVAEALLDGDPEEAEELLREAKRLAEELGNRLFRWQIEFLEELLKSSSSS

Biological target: il10ra, Q13651
Experiment: yeast display titration

Question: With B1 as the binder, how does the “apparent Kd” value read?
Answer: The value was “inactive: no binding seen”.

Question: With B2 as the binder, how does the “apparent Kd” value read?
Answer: The value was “inactive: no binding seen”.

Question: Which “apparent Kd” value does the source give for B3 here?
Answer: The value was “inactive: no binding seen”.

Question: How did the “apparent Kd” value turn out when B4 was run?
Answer: Its value is “inactive: no binding seen”.

Question: For B5, which “apparent Kd” value is on record?
Answer: The value was “inactive: no binding seen”.

Question: For B6, which “apparent Kd” value is on record?
Answer: Its value is “inactive: no binding seen”.

Question: B7 was tested. Which “apparent Kd” value did it give?
Answer: The value was “inactive: no binding seen”.

Question: With B8 as the binder, how does the “apparent Kd” value read?
Answer: Its value is “inactive: no binding seen”.

Question: For B9, which “apparent Kd” value is on record?
Answer: Its value is “inactive: no binding seen”.

Question: Which “apparent Kd” value does the source give for B10 here?
Answer: The value was “inactive: no binding seen”.
